Test results taken from PubChem BioAssay AID504834 (National Center for Advancing Translational Sciences (NCATS), 2011).
The campaign covered roughly 320,000 compounds. About 22,000 (6.9%) were called active. The inconclusive results got no clear call from the source; some entries with a clear call stand among them for comparison. Calls follow the shape of the dose curve; as a rule, active = well fitted inhibition curve with a large enough effect; inconclusive = small, poorly fitted or top-dose-only effect, or another doubt; inactive = no such curve, though single readings can be large or run the other way. Potencies beside an inconclusive call are fits to weak or partial responses and may not hold up.

Experiment: Primary qHTS for delayed death inhibitors of the malarial parasite plastid, 96 hour incubation
Settings: P. falciparum luciferase reporter growth; series mostly up to 28.7 µM
Procedure, shortened: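 Infected RBCs, 2% Hct / 0.05% parasitemia final; luciferase-reporter P. falciparum; cpd 96 h, 37 C, 5% CO2; luciferase detection reagent; luminescence.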
% is scaled to controls: 0 for no effect and ±100 for the full control effect; potency is read from the fitted curve at half-maximal effect.

Structure (SMILES)	Potency	activity change, negative = inhibition
C[C@H](NC(=O)[C@H]1N2C(=O)c3ccccc3C2SC1(C)C)C(=O)N1CCC[C@H]1C(=O)O (stereo partly specified)	inconclusive: 0.465 µM [inhibitor, full curve]	–
Cc1n[nH]c(C)c1S(=O)(=O)N1CCN(c2ccccn2)CC1	inactive	–
O=C(COc1ccc2c3c(c(=O)oc2c1)CCCC3)N1C[C@H]2C[C@@H](C1)c1cccc(=O)n1C2	inconclusive: 4.65 µM [inhibitor, partial curve, poor fit]	–
CC1CCc2c(sc(N)c2C(N)=O)C1 (stereo unspecified)	inactive	–
CCC(C)N1C(=O)CN(C2CCCCCC2)C(=O)C1c1ccccc1F (stereo unspecified)	inconclusive: 18.5 µM [inhibitor, single point]	–
CCCn1c(C)cc(C(=O)COc2ccc(S(=O)(=O)N(CC)CC)cc2[N+](=O)[O-])c1C	inconclusive: 18.5 µM [inhibitor, single point]	–
Cc1ccccc1Cc1ccc(Cl)nn1	inactive	–
O=C(CSCc1ccccc1)Nc1cccc(F)c1	inconclusive: 3.29 µM [inhibitor, single point]	–
COc1ccc(OC)c(CN2CCN(c3ccccc3OC)CC2)c1	inconclusive: 16.5 µM [inhibitor, partial curve, poor fit]	–
CC(=O)Nc1ccc(-c2ccc(NC(C)=O)c(O)c2)cc1O	inactive	–
O=c1ccc(NS(=O)(=O)c2ccccc2Cl)cn1Cc1ccc(Cl)c(Cl)c1	inconclusive: 0.147 µM [inhibitor, full curve]	–
COc1cccc(C(=O)NCC(=O)NNc2ncnc(N)c2[N+](=O)[O-])c1	inactive	–
CN(CC(=O)NC(=O)NCc1ccccc1)CC(=O)Nc1ccc(Cl)c(Cl)c1	inconclusive: 18.5 µM [inhibitor, single point]	–
COc1ccc(N2CCN(c3nc(Nc4ccc(F)cc4)nc(OC)n3)CC2)cc1	inactive	–
COc1cc(OC)cc(C(=O)Nc2ccc(C(=O)NCC3CCCO3)cc2)c1 (stereo unspecified)	inconclusive: 10.4 µM [inhibitor, single point]	–
O=C(Nc1cc(C(F)(F)F)ccc1Cl)c1cc2nc3c(c(C(F)(F)F)n2n1)CCCC3	inconclusive: 18.5 µM [inhibitor, single point]	–
COc1cc(/C=C2/SC(=S)N(Cc3ccccc3)C2=O)ccc1OS(C)(=O)=O	inconclusive: 4.15 µM [inhibitor, partial curve, poor fit]	–
Cc1cccc(N2CCN(CCCNC(=O)c3ccc(NC(=O)C4=CSCCO4)cc3)CC2C)c1 (stereo unspecified)	inactive	–
CCOc1ccc(Cn2ccnc2CCl)cc1[N+](=O)[O-]	inconclusive: 0.147 µM [inhibitor, full curve, poor fit]	–
Cc1c(C(=O)NCc2ccccn2)oc2ccccc12	–	inactive: 12.6% [at 5.75 µM]
Cc1cccc(NC(=O)Cn2c(O)c(N=NC(=O)c3ccccc3O)c3ccccc32)c1	inactive	–
COc1ccc(CCNC(=O)CN2C(=O)COc3ccc(S(=O)(=O)N4CCCC4)cc32)c(OC)c1	active: 9.28 µM	–
CN(C(=O)Oc1ccc(C(=O)c2ccc(Cl)cc2)cc1)c1ccccc1	inconclusive: 2.33 µM [inhibitor, full curve]	–
C=CCOC(=O)C1=C(C)NC(=O)NC1/C=C/c1ccccc1OC (stereo unspecified)	inconclusive: 1.47 µM [inhibitor, partial curve, poor fit]	–

Structure (SMILES)	Potency	activity change, negative = inhibition
Cc1sc(NC(=O)c2ccco2)c(CN2CCC(C)CC2)c1C	inconclusive: 1.65 µM [inhibitor, full curve, poor fit]	–
O=C(c1ccccc1)c1ccc(OCCO)cc1	inactive	–
COc1ccc(C2c3c(oc4c(C)cc(C)cc4c3=O)C(=O)N2Cc2cccnc2)cc1OC (stereo unspecified)	active: 9.28 µM	–
COC(=O)C1=C(c2ccc(OCc3ccccc3)cc2)C[C@@H]2CC[C@H]1N2C(=O)NCCCc1ccccc1	inconclusive: 8.28 µM [inhibitor, partial curve, poor fit]	–
COc1cc(C2C(C(C)=O)=C(O)C(=O)N2Cc2ccccc2)ccc1O (stereo unspecified)	inactive	–
COc1ccc([N+](=O)[O-])cc1NC(=O)CSCc1cc(C)cc(C)c1	inconclusive: 1.85 µM [inhibitor, full curve, poor fit]	–
O=[N+]([O-])c1ccc(S(=O)(=O)Nc2nnc(C(F)(F)F)s2)cc1	active: 10.4 µM	–
Cc1cccc(C)c1NC(=O)CN1CCN(CC(=O)NCC2(N3CCCCC3)CCCCC2)CC1	inactive	–
COc1ccc2oc(C(=O)N3CCN(C(c4ccccc4)c4ccccc4)CC3)c(C)c2c1	active: 4.65 µM	–
Fc1ccc(-c2[nH]ncc2-c2nnnn2-c2ccccc2)c(F)c1	inconclusive: 2.94 µM [inhibitor, partial curve]	–
COC(=O)c1ccc(CN2CCN(C3CCCCC3)C(CCO)C2)cc1 (stereo unspecified)	inconclusive: 18.5 µM [inhibitor, single point]	–
CCOC(=O)c1c(-c2ccc(Cl)cc2)csc1NC(=O)CNCc1ccco1	inconclusive: 14.7 µM [inhibitor, single point]	–
C=CCn1c2ccccc2c(=O)c2cc(C#CC[C@@H](C)O)ccc21	inconclusive: 16.5 µM [inhibitor, single point]	–
CNCCC1Sc2ccccc2Oc2ccccc21 (stereo unspecified)	inconclusive: 0.0033 µM [inhibitor, full curve, poor fit]	–
CS(=O)(=O)N(CCc1ccccc1)CC(=O)N1CCN(c2ccccc2F)CC1	inconclusive: 13.1 µM [inhibitor, single point]	–
Cc1cc(CNC(=O)[C@H](C)[C@@H]2C[C@@]2(C)[C@@H](NC(=O)OCc2ccccc2)c2ccccc2)nn1C	inconclusive: 18.5 µM [inhibitor, single point]	–
CCc1ccc(C(=O)CSc2nc(N)cc(=O)[nH]2)cc1	active: 10.4 µM	–
Nc1ccc2nc(-c3ccccc3)sc2c1	inactive	–
COc1cccc(CN2CCN(C(=O)c3ccc(-c4ccccc4)cc3)CC2)c1OC	active: 2.94 µM	–
CCc1nnc(NC(=O)CSc2nc3cc(OC)c(OC)cc3cc2C)s1	inconclusive: 18.5 µM [inhibitor, single point]	–
CSc1cccc(NS(=O)(=O)c2ccc3c(c2)CCN3C(C)=O)c1	inconclusive: 11.7 µM [inhibitor, single point]	–
Cc1ccc(N(C)S(=O)(=O)c2cccc(C(=O)NCCCN3CCCC3=O)c2)cc1	inconclusive: 18.5 µM [inhibitor, single point]	–
CCCn1nc(C(=O)Nc2ccc(S(=O)(=O)Nc3ncccn3)cc2)c2ccccc2c1=O	inconclusive: 5.86 µM [inhibitor, single point]	–
O=C(CSc1ncc(-c2ccccc2)n1C1CCCC1)N1CCc2ccccc21	inconclusive: 18.5 µM [inhibitor, partial curve, poor fit]	–

Given as a markdown table: part of the list above.

| Structure (SMILES) | Potency | activity change, negative = inhibition |
| --- | --- | --- |
| O=c1ccc(NS(=O)(=O)c2ccccc2Cl)cn1Cc1ccc(Cl)c(Cl)c1 | inconclusive: 0.147 µM [inhibitor, full curve] | – |
| CNCCC1Sc2ccccc2Oc2ccccc21 (stereo unspecified) | inconclusive: 0.0033 µM [inhibitor, full curve, poor fit] | – |
| Cc1cc(CNC(=O)[C@H](C)[C@@H]2C[C@@]2(C)[C@@H](NC(=O)OCc2ccccc2)c2ccccc2)nn1C | inconclusive: 18.5 µM [inhibitor, single point] | – |

Continued:

Structure (SMILES)	Potency	activity change, negative = inhibition
COc1cc(CN/C(C)=C(\C#N)C(N)=O)cc(OC)c1OC	active: 2.08 µM	–
CC(C)(C)N1CCC1C(N)=O (stereo unspecified)	inconclusive: 20.8 µM [inhibitor, partial curve, poor fit]	–
COc1cc(OC)c(S(=O)(=O)NC(C)C)cc1C(=O)O	inactive	–
Cc1ccc(-c2cc3ccccc3nc2N2CCCC2)cc1	inactive	–
FC(F)(F)c1ccc(CSc2ccccn2)cc1	inactive	–
CC(Sc1n[nH]c(=O)n1Cc1ccccc1)C(=O)NCC1CCCO1 (stereo unspecified)	inactive	–
CCc1ccc(/C=N/n2c(C)cc(C)c(C#N)c2=O)cc1	active: 1.65 µM	–
CCCOP(=O)(c1ccc(N(C)C)cc1)C(O)c1c(Cl)cccc1Cl (stereo unspecified)	active: 8.28 µM	–
O=C(CN1CCSC1=NCc1ccccc1)c1ccc(Cl)cc1	inconclusive: 10.4 µM [inhibitor, single point]	–
Oc1ccc(/C=N/Nc2ccnc3cc(Cl)ccc23)c(O)c1O	inconclusive: 9.28 µM [inhibitor, single point]	–
Cc1occc1C(=O)NNC(=O)CN1C(=O)NC(C)(c2ccccc2)C1=O (stereo unspecified)	inactive	–
CCOc1ccc(C(=O)NCC(=O)NCC(c2cccs2)N2CCOCC2)cc1 (stereo unspecified)	inactive	–
CCOc1ccc(-n2c(Cc3ccccc3)nnc2SCc2c(C)noc2C)cc1	inconclusive: 11.7 µM [inhibitor, single point]	–
CCOC(=O)N1CCN(CCC(=O)Nc2cc([N+](=O)[O-])ccc2OC)CC1	inconclusive: 13.1 µM [inhibitor, partial curve, poor fit]	–
Cc1nc(Sc2ccccc2)c(C#N)cc1-c1ccccc1	inconclusive: 9.28 µM [inhibitor, single point]	–
CCN(c1ccccc1)c1nc(C#N)nc(N(CC)c2ccccc2)n1	inconclusive: 6.57 µM [inhibitor, partial curve, poor fit]	–
COc1ccc(N2CCN(Cc3nc(Cc4cccc(F)c4)no3)C(C)C2)cc1 (stereo unspecified)	inconclusive: 1.85 µM [inhibitor, full curve]	–
O=C(CN1C(=O)CCC1=O)Nc1nc(-c2ccccn2)cs1	inconclusive: 18.5 µM [inhibitor, single point]	–
Cc1ccc2c(c1)C1CN(C)CCC1N2C(=O)Nc1ccc(Cl)cc1 (stereo unspecified)	active: 10.4 µM	–
COc1ccc(OC)c(NC(=O)C2CCCN(S(C)(=O)=O)C2)c1 (stereo unspecified)	inconclusive: 18.5 µM [inhibitor, single point]	–
Cc1nn(C)c(Oc2cccc(C(F)(F)F)c2)c1C=O	inactive	–
C/C(=N/NC(=S)Nc1ccccc1)c1ccc2c(c1)OCO2	inconclusive: 10.4 µM [inhibitor, partial curve, poor fit]	–
Oc1ccc(Cl)cc1-c1cc(-c2ccco2)[nH]n1	inconclusive: 8.28 µM [inhibitor, partial curve]	–
